Here are results for one molecule from doi:10.1101/2023.09.13.557663.

These are yes or no findings as the source states them, for the method shown. Binding seen in cells or lysates may run through a third protein. A yes stands for co-enrichment or nearness to the bait. Other partners may have been found.

The target of this assay is EGFR-flag-TurboID (EGFR-TurboID fusion construct, HeLa clone T1), P00533. Nature of the assay: proximity labelling. Conditions: remark: other sources report otherwise.

B1: clathrin interactor 1 (CLINT1), Q14677 1-625 (protein)
chain: MLNMWKVRELVDKATNVVMNYSEIESKVREATNDDPWGPSGQLMGEIAKATFMYEQFPELMNMLWSRMLKDNKKNWRRVYKSLLLLAYLIRNGSERVVTSAREHIYDLRSLENYHFVDEHGKDQGINIRQKVKELVEFAQDDDRLREERKKAKKNKDKYVGVSSDSVGGFRYSERYDPEPKSKWDEEWDKNKSAFPFSDKLGELSDKIGSTIDDTISKFRRKDREDSPERCSDSDEEKKARRGRSPKGEFKDEEETVTTKHIHITQATETTTTRHKRTANPSKTIDLGAAAHYTGDKASPDQNASTHTPQSSVKTSVPSSKSSGDLVDLFDGTSQSTGGSADLFGGFADFGSAAASGSFPSQVTATSGNGDFGDWSAFNQAPSGPVASSGEFFGSASQPAVELVSGSQSALGPPPAASNSSDLFDLMGSSQATMTSSQSMNFSMMSTNTVGLGLPMSRSQNTDMVQKSVSKTLPSTWSDPSVNISLDNLLPGMQPSKPQQPSLNTMIQQQNMQQPMNVMTQSFGAVNLSSPSNMLPVRPQTNALIGGPMPMSMPNVMTGTMGMAPLGNTPMMNQSMMGMNMNIGMSAAGMGLTGTMGMGMPNIAMTSGTVQPKQDAFANFANFSK
As for B1, the binding entry is “binds”.
